According to PubChem BioAssay AID624291 (National Center for Advancing Translational Sciences (NCATS), 2012):
Screen size: about 350,000 compounds; about 220 (0.063%) were called active. Inconclusive means that the source gave no clear call. Such entries were picked first, then a sample of the others. The call rests on the fitted dose curve; in most records, active means well fitted activation curve with a large enough effect; inconclusive means small, poorly fitted or top-dose-only effect; inactive means no such curve, though single readings can be large or run the other way. Potencies beside an inconclusive call are fits to weak or partial responses and may not hold up.

Test: qHTS for Activators of Integrin-Mediated Alleviation for Muscular Dystrophy; further: nearly all actives have a fitted effect of over 60% in size;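 on activation: 100% = response of the positive control SU9516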
Conditions: alpha7betagal myoblasts, beta-gal FDG fluorescence, 48 h; activation: at 38.3 µM (top of the series)
In short: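 alpha7betagal+/- myoblasts (passage 13, 250/well) treated 48 h at 37C with compounds at 1:260 dilution of DMSO stock. Lysed, then beta-galactosidase activity read as FDG fluorescence (ex 480/em 540) after 30 min, with pre-read for autofluorescence.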
Potency means the concentration at half of the fitted maximal effect.

SMILES	Potency	activation
CC(C)n1c(N2CCCC2)nc2c1c(=O)[nH]c(=O)n2C	inconclusive: 5.01 µM [activator, single point]	–
CO/N=C\c1cc(C(=O)c2ccc(Cl)cc2Cl)cn1C	inconclusive: 0.316 µM [activator, full curve, poor fit]	–
CN(C)S(=O)(=O)c1ccc(NC(=O)CSc2ncnc3ccccc23)cc1	inconclusive: 0.891 µM [activator, full curve, poor fit]	–
COC(=O)C1CN(C(=O)COc2cc(C)cc(C)c2)c2ccccc2O1 (stereo not given)	inconclusive: 5.01 µM [activator, single point]	–
O=C(CSc1ccccc1F)Nc1ccc(N2CCOCC2)cc1	–	inactive: -11.5%
CC(C)Oc1ccc(C(=O)CCN2CCOCC2)cc1	–	inactive: -45%
COC(=O)Nc1ccc(S(=O)(=O)N2CCCc3ccccc32)cc1	–	inactive: -21.7%
O=C1C=CC(=O)N1c1ccc2ccccc2c1	–	inactive: -31.7%
COc1ccc2c(c1)CC/C2=N\OC(=O)c1ccccc1C	inconclusive: 0.891 µM [activator, full curve, poor fit]	–
Cc1ccc(C(=O)Sc2cccccc2=O)cc1	–	inactive: -72.3%
CC(=O)c1ccc(N2CCN(S(=O)(=O)c3ccc4c(c3)CC(=O)N4C)CC2)cc1	inconclusive: 15.8 µM [activator, partial curve, poor fit]	–
CCOC(=O)C1=C(CSCC(=O)OC)NC(=O)NC1c1cc(C)ccc1C (stereo not given)	–	inactive: -7.95% [at 7.66 µM]
Cn1ccnc1C(O)(c1ccccc1)c1ccccc1	–	inactive: 1.35%
O=C(O)c1ccc(/C=N\Nc2ccccn2)cc1	–	inactive: 19%
COc1ccc(COC(=O)C2=C(C)NC(=O)NC2c2ccc(OC)cc2)cc1 (stereo not given)	inconclusive: 3.98 µM [activator, single point]	–
CCOc1ccc(CCNC(=O)CCS(=O)(=O)c2ccc(C)cc2)cc1OCC	inconclusive: 3.98 µM [activator, single point]	–
CCCCn1c(N)c(N(CCOC)C(=O)CSc2nnc(-c3ccco3)n2CC)c(=O)[nH]c1=O	inconclusive: 7.08 µM [activator, partial curve]	–
CCc1nc2ccc(C(=O)N3CCN(CC)CC3)cc2nc1CC	inconclusive: 3.16 µM [activator, single point]	–
O=C(Cc1ccccc1F)Nc1ccc(SC(F)F)cc1	inconclusive: 3.16 µM [activator, partial curve, poor fit]	–
CS(=O)(=O)N1CCN(c2ccc(NC(=S)NC(=O)c3cccs3)cc2)CC1	inconclusive: 12.6 µM [activator, single point]	–

Looked up above.
Entry of Cc1ccc(C(=O)Sc2cccccc2=O)cc1 under activation: inactive: -72.3%
Entry of O=C(CSc1ccccc1F)Nc1ccc(N2CCOCC2)cc1 under activation: inactive: -11.5%
